What all share (assay): protein microarray (ProtoArray v5.0), streptavidin-Alexa Fluor 647
Details in all cases: 3'-biotin; 20 mM Tris (pH 7.5), 5 mM MgCl2, 100 mM KCl, 0.1% Tween-20, A/T-rich and random oligonucleotide blockers; temperature not stated; high values mean tight binding

The subject of test [1] is Adenylate kinase isoenzyme 2, mitochondrial (human).
Test [2] has as its system Adenylate kinase isoenzyme 4, mitochondrial (human).
The subject of test [3] is Aldehyde dehydrogenase family 16 member A1 (human).
Test [4] deals with Aldehyde dehydrogenase family 3 member B1 (human).
Test [5] deals with Aldehyde dehydrogenase family 8 member A1 (human).
Test [6] relates to Alpha-1,3-mannosyl-glycoprotein 4-beta-N-acetylglucosaminyltransferase B (human).
For test [7], the system named is Alpha-catulin (human).
Test [8] has as its system Amino-terminal enhancer of split (human).
In test [9] the test system is Anaphase-promoting complex subunit 11 (human).
Test [10] deals with Annexin A4 (human).

The list shows a part of the results.

Turning to “GGTGACAGGGGTATGGGGAGGGG [G4-2 biotinylated (Ct1)]”, the binding signal was -0.371 z-score in test [1]; -0.39 z-score in test [2]; -0.382 z-score in test [3]; -0.376 z-score in test [4]; -0.394 z-score in test [5]; -0.377 z-score in test [6]. In addition, the binding signal was -0.392 z-score in test [7], -0.403 z-score in test [8], -0.376 z-score in test [9] and -0.381 z-score in test [10].
